# In the supplement of paper PMC12067093, “Discovery and optimisation of a covalent ligand for TRIM25 and its application to targeted protein ubiquitination” (Chemical Science, 2025):
# The chains behind the UniProt entries cited, without tags or fusion partners. Where a name states a change or a piece, a line headed by the entry shows the natural chain unless it says otherwise.
# UniProt Q92890: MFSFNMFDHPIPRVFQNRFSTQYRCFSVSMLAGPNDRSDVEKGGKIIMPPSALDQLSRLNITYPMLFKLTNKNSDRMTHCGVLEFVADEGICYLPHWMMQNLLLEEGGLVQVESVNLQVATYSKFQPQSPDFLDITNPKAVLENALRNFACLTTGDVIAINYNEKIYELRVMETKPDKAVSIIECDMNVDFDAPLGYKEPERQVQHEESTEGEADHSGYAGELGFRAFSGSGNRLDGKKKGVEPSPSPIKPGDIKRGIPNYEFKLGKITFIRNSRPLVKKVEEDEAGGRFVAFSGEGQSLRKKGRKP
# UniProt P10746: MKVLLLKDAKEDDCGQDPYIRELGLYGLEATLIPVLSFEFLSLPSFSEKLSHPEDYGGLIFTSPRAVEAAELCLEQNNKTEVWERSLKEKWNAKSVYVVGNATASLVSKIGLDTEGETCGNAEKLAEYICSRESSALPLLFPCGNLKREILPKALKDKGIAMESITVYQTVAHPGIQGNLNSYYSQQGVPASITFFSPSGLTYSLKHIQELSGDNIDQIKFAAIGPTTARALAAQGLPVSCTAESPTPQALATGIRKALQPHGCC
# UniProt O60287: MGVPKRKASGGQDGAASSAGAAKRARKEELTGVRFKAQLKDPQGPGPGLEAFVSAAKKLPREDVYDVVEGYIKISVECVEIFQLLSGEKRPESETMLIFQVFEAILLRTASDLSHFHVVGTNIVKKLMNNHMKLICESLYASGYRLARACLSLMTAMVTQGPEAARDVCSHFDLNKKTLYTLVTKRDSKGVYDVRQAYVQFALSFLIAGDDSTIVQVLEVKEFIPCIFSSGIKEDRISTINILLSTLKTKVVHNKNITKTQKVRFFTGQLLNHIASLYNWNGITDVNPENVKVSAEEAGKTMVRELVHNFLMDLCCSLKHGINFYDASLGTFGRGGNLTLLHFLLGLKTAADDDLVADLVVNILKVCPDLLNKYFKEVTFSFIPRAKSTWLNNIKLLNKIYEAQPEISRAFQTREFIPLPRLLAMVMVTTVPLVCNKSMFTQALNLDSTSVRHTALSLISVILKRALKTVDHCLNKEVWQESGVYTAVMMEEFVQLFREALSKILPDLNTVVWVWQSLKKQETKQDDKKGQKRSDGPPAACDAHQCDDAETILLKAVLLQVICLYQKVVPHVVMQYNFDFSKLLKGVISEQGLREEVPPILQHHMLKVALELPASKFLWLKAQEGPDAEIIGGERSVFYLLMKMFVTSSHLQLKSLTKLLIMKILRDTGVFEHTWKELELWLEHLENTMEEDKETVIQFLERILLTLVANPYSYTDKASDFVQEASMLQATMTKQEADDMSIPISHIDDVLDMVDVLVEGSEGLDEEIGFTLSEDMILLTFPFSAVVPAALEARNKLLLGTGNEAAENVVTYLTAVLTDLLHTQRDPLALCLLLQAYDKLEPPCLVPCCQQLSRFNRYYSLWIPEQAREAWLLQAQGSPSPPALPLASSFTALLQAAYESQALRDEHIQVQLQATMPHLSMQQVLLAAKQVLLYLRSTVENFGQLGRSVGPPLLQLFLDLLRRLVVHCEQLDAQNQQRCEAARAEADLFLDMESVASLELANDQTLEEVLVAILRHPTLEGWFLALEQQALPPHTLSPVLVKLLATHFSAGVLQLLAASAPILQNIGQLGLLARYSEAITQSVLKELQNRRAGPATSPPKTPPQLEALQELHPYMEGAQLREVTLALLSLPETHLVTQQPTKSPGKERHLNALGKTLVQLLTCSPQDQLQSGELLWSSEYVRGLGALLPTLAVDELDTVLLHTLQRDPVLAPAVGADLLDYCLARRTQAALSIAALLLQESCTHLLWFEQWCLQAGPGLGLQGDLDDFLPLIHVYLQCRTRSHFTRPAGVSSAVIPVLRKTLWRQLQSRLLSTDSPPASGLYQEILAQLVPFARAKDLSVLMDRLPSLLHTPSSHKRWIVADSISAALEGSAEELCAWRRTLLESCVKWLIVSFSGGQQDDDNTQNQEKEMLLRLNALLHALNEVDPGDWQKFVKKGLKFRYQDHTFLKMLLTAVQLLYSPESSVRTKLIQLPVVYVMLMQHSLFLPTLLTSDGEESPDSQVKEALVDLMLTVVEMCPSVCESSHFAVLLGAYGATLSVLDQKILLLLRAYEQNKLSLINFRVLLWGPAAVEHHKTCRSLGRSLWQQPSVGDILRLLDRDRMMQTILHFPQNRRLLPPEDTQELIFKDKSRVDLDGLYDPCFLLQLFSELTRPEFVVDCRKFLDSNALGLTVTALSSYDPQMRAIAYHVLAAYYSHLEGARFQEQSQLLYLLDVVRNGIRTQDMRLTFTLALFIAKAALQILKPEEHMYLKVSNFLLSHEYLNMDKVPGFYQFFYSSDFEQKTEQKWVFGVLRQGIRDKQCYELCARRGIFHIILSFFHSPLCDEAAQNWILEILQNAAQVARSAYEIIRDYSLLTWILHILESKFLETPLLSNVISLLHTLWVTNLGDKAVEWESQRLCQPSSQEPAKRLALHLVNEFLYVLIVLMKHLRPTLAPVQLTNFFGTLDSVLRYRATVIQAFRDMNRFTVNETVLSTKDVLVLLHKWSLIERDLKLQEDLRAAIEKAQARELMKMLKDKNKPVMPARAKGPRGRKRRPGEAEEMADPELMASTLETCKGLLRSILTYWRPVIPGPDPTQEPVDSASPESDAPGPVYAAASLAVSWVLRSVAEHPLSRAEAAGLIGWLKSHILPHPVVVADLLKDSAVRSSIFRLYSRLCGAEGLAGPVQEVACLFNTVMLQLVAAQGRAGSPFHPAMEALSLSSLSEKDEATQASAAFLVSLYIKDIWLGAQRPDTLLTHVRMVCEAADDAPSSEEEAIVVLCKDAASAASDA
# UniProt Q93009, whole entry, looked up: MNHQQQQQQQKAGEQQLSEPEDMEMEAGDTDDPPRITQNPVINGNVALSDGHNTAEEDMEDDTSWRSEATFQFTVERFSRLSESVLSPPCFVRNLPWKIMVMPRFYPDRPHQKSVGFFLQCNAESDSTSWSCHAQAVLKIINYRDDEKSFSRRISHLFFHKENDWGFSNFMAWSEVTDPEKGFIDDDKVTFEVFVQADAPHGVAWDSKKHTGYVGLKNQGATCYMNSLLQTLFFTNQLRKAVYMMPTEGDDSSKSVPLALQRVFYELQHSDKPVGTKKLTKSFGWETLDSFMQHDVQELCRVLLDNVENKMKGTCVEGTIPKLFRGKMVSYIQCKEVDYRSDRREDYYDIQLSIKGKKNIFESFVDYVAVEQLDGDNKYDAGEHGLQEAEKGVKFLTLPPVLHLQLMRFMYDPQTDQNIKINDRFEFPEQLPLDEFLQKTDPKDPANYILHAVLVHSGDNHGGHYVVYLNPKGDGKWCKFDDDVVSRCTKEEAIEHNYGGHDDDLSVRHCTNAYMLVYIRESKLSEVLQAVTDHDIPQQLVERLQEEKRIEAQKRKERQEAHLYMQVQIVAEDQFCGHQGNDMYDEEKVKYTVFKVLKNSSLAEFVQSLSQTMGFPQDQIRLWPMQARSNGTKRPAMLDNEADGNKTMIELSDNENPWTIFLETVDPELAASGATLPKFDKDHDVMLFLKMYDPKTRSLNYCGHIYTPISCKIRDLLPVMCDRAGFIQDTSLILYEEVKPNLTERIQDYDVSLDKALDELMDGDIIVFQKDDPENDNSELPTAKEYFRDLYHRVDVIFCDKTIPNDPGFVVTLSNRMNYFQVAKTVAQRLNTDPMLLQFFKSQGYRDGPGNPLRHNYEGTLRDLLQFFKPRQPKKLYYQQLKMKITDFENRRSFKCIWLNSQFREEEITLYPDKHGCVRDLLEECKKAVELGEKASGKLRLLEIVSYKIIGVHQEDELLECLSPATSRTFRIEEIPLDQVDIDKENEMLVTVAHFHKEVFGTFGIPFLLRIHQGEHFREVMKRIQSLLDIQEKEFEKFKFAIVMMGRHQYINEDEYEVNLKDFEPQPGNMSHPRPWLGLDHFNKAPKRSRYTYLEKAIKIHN
# UniProt Q70J99: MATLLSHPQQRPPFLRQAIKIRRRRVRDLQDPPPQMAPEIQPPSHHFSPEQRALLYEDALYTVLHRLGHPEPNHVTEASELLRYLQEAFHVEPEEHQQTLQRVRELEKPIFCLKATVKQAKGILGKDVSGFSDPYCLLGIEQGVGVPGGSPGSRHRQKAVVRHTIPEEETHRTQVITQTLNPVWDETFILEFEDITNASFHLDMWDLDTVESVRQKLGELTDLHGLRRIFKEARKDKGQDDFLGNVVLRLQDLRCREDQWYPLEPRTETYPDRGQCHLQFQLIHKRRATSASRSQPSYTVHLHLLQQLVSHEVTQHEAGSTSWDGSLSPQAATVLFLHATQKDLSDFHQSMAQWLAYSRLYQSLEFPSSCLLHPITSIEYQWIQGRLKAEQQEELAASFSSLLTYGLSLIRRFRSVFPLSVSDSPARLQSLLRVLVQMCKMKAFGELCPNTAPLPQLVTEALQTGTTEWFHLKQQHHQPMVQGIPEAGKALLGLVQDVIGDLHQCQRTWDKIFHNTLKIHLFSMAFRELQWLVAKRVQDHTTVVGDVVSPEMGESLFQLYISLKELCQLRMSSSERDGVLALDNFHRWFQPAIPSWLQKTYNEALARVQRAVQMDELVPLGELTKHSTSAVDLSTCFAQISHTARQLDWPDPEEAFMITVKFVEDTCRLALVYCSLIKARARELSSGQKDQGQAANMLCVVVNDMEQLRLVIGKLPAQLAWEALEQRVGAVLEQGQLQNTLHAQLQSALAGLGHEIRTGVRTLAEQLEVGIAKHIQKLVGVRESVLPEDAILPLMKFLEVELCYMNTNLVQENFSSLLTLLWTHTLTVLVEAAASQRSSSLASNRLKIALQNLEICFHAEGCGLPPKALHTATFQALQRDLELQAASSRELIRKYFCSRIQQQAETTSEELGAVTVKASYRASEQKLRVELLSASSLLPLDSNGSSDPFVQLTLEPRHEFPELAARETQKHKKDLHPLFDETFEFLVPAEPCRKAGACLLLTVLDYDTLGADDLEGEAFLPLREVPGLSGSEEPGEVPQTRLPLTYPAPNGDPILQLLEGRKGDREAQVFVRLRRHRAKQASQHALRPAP
# UniProt P07919: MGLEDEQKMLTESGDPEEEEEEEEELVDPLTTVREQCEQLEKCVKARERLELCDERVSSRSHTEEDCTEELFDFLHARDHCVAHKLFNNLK
# UniProt Q9NVE5: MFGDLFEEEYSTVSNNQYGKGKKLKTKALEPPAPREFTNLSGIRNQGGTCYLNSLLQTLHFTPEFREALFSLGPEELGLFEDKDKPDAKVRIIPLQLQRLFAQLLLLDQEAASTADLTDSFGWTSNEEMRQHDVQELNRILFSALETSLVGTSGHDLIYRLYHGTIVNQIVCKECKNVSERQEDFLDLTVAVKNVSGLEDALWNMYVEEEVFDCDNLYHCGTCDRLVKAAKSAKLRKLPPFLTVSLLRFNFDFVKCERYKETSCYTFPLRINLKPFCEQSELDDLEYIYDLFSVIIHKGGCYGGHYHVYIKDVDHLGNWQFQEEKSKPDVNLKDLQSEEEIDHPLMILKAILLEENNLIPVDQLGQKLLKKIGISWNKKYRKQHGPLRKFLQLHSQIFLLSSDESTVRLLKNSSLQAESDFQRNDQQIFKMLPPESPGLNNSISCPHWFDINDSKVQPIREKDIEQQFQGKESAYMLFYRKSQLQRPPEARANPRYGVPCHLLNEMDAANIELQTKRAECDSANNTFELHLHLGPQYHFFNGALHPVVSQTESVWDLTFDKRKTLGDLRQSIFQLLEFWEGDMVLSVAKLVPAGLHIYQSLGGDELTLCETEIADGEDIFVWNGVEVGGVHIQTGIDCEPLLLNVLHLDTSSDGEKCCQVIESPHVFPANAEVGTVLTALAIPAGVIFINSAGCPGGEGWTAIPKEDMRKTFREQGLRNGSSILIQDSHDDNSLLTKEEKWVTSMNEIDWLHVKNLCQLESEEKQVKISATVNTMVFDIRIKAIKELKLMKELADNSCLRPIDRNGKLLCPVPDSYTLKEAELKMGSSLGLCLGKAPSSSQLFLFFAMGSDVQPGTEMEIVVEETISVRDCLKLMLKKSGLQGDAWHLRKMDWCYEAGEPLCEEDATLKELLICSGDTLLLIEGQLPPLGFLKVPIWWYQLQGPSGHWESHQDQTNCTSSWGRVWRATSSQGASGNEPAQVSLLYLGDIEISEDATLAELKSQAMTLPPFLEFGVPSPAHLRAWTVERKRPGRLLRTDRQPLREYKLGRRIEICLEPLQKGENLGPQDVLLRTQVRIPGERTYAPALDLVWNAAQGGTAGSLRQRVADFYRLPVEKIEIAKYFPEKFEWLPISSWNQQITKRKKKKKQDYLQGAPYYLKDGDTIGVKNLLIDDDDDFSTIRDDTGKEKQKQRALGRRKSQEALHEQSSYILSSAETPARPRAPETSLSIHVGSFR
# UniProt Q8WUN7: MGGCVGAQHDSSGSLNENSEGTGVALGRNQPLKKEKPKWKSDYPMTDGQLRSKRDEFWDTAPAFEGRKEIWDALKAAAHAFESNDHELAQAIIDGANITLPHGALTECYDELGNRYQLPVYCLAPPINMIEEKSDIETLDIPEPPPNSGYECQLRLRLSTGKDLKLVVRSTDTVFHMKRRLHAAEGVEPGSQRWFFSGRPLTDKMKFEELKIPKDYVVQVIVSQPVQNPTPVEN
# This is one part of the list.
# Compound: Cc1cc(ccc1-c1ccccc1)C(=O)N1CCCN(CC1)C(=O)CCl [compound 10]
# Test: probe-labelled cysteine peptide fold change vs DMSO (competition) (log2 fold change); higher = less target engagement (more negative = stronger competition)
# Details: THP-1, incubation time: 4 h
# 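Further: competitive profiling in live THP-1 cells: cysteine peptides tagged with an iodoacetamide desthiobiotin (IA-DTB) probe, intensity after compound treatment relative to DMSO-treated cells.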
Target,probe-labelled cysteine peptide fold change (10 µM),probe-labelled cysteine peptide fold change (50 µM)
UFD1_Q92890_25_CFSVSMLAGPNDRSDVEK (UniProt Q92890),0.194,-0.192
UROS_P10746_119_IGLDTEGETCGNAEK (UniProt P10746),-0.0553,-0.0029
USP19_O94966_1138_FCIGQK (UniProt O94966),-0.0378,-0.0473
USP8_P40818_214_RMQDYQDSCILHSLSVPEEAISPGVTASWIEAHLPDDSK (UniProt P40818),-0.055,-0.00185
URB1_O60287_316_ELVHNFLMDLCCSLK (UniProt O60287),0.0303,0.0568
UGP2_Q16851_123_LNGGLGTSMGCK (UniProt Q16851),-0.279,-0.793
URGCP_Q8TCY9_292_QWDCFWHR (UniProt Q8TCY9),0.0356,-0.0205
UGP2_Q16851_276_RCEFVMEVTNK (UniProt Q16851),0.0627,0.165
USP48_Q86UV5_145_DYEPQTICEHLQYLFALLQNSNRR (UniProt Q86UV5),0.119,0.166
USP5_P45974_219_ENLWLNLTDGSILCGR (UniProt P45974),-0.0536,0.0911
USP7_Q93009_799_DLYHRVDVIFCDK (UniProt Q93009),-0.0307,-0.336
UFL1_O94874_641_SIEDFISCLDSAAEACDIMVK (UniProt O94874),0.245,0.00277
USP19_O94966_1042_ELECAEDPGSAGEAAR (UniProt O94966),0.085,0.4
UNC119B_A6NIH7_85_VTENYLCKPEDNIYSIDFTR (UniProt A6NIH7),-0.113,0.137
USP34_Q70CQ2_3118_SNIRPPRPELNMCLLPTMVETSK (UniProt Q70CQ2),0.146,-0.174
UBR7_Q8N806_374_VQQVELICEYNDLK (UniProt Q8N806),0.0344,-0.293
USP16_Q9Y5T5_509_EYCVNQK (UniProt Q9Y5T5),-0.507,-0.529
USP39_Q53GS9_306_AHVSPHEMLQAVVLCSK (UniProt Q53GS9),0.113,0.301
UNC13D_Q70J99_276_TETYPDRGQCHLQFQLIHK (UniProt Q70J99),0.0212,-0.344
USP4_Q13107_500_VMEVFLVPADPHCRPTQYR (UniProt Q13107),0.0133,0.124
USP10_Q14694_456_VQRPCTSTPMIDSFVR (UniProt Q14694),-0.0395,-0.00663

Target,probe-labelled cysteine peptide fold change (10 µM),probe-labelled cysteine peptide fold change (50 µM)
URGCP_Q8TCY9_629_EMGQFYEAESCLVEAGRLPAGQR (UniProt Q8TCY9),-0.181,-0.317
UNC13D_Q70J99_699_DQGQAANMLCVVVNDMEQLR (UniProt Q70J99),-0.0585,-0.112
USP24_Q9UPU5_1556_TAECETSEADNILLAGHLR (UniProt Q9UPU5),-0.139,-0.0485
UFC1_Q9Y3C8_116_ICLTDHFK (UniProt Q9Y3C8),-0.173,-0.226
UNK_Q9C0B0_696_ASAAGAECELAR (UniProt Q9C0B0),-0.172,-0.212
UPF3B_Q9BZI7_453_LCPPDDSTK (UniProt Q9BZI7),0.074,0.0744
UGGT1_Q9NYU2_159_TCESDTLEALLLTASERPK (UniProt Q9NYU2),0.0351,0.301
UHRF1BP1L_A0JNW5_618_HCPNCR (UniProt A0JNW5),-0.292,-0.0428
USP19_O94966_152_VGVGPLQLEDVDAAFTDTDCVVR (UniProt O94966),0.106,0.562
USP7_Q93009_702+711_SLNYCGHIYTPISCK (UniProt Q93009),0.000646,-0.0787
USP8_P40818_939_STVQCLTCHKK (UniProt P40818),-0.232,-0.515
UQCRH_P07919_53_ERLELCDER (UniProt P07919),-0.198,-0.0582
UNK_Q9C0B0_272_CENGDACQYCHTR (UniProt Q9C0B0),0.298,0.317
UHRF1_Q96T88_497_TAEQSCDQK (UniProt Q96T88),-0.159,-0.0803
UQCRC2_P22695_192_NALANPLYCPDYR (UniProt P22695),0.015,0.158
UFL1_O94874_708_CVPQIIAFLNSK (UniProt O94874),-0.0536,0.189
USP16_Q9Y5T5_631_EVFNTDECSIQHCLYQFTR (UniProt Q9Y5T5),-0.104,-0.264
UHRF1_Q96T88_170_KAPSRDEPCSSTSR (UniProt Q96T88),-0.1,-0.0594
UHRF1BP1L_A0JNW5_647_SCDNFNLLHPIFQR (UniProt A0JNW5),-0.0862,-0.265
USP24_Q9UPU5_679_LVTGSLIACHR (UniProt Q9UPU5),-0.0317,0.0717
USP15_Q9Y4E8_791_DCIELFTTK (UniProt Q9Y4E8),-0.131,-0.0515

Target,probe-labelled cysteine peptide fold change (10 µM),probe-labelled cysteine peptide fold change (50 µM)
UMPS_P11172_304_CHEFLIFEDR (UniProt P11172),0.122,0.192
UQCC2_Q9BRT2_13_LCEEWPVDETK (UniProt Q9BRT2),0.106,0.189
USP40_Q9NVE5_50_NQGGTCYLNSLLQTLHFTPEFR (UniProt Q9NVE5),-0.592,-1.83
UHRF1_Q96T88_410_ECTIVPSNHYGPIPGIPVGTMWR (UniProt Q96T88),0.138,0.315
USP19_O94966_833_GLCRPENIGYPFLVSVPASR (UniProt O94966),0.0512,-0.111
UBTF_P17480_309_DKFDGRPTKPPPNSYSLYCAELMANMK (UniProt P17480),0.0169,-0.71
USP34_Q70CQ2_111_HCTTINIDSTWQDESNQAEEPLNIDRECNEGSTER (UniProt Q70CQ2),-0.406,0.222
UPF3A_Q9H1J1_315_QESCAPGAVVK (UniProt Q9H1J1),-0.016,0.245
UNC13B_O14795_1352_QCAVLDLALDTIK (UniProt O14795),-0.00309,0.0603
UHRF1BP1L_A0JNW5_81_THPICLSLDK (UniProt A0JNW5),-0.0159,-0.454
USP4_Q13107_519_VTVPLMGAVSDLCEALSR (UniProt Q13107),-0.022,-0.156
URB1_O60287_473_TVDHCLNK (UniProt O60287),-0.0146,0.509
USP24_Q9UPU5_1628_CSTANSR (UniProt Q9UPU5),-0.0669,0.116
UROS_P10746_265_ALQPHGCC (UniProt P10746),-0.0814,-0.339
URB2_Q14146_205_AFGDVTAHLLQPCLVLR (UniProt Q14146),0.142,0.0509
UNC45A_Q9H3U1_395_LCENYIK (UniProt Q9H3U1),0.113,0.0172
UBTF_P17480_68_DFSGDMCK (UniProt P17480),0.117,-0.13
UFD1_Q92890_25_CFSVSMLAGPNDR (UniProt Q92890),0.0693,0.143
USP24_Q9UPU5_1377_LSSSGSNCSSGSEGEPVALHAGICVR (UniProt Q9UPU5),0.0337,0.075
UHRF1BP1L_A0JNW5_1235_HYLCNRPVGSDQK (UniProt A0JNW5),-0.0376,-0.282
UMPS_P11172_174_LHSVCTLSK (UniProt P11172),0.07,-0.0952

Target,probe-labelled cysteine peptide fold change (10 µM),probe-labelled cysteine peptide fold change (50 µM)
USP47_Q96K76_1309_VSTLNVWPLYICDDGAVIFYR (UniProt Q96K76),0.315,-0.0757
USP48_Q86UV5_514_WLDESTPTKPIDNHACLCSHDK (UniProt Q86UV5),-0.0953,-0.81
UNC45A_Q9H3U1_34_CGDYGGALAAYTQALGLDATPQDQAVLHR (UniProt Q9H3U1),-0.15,-0.0838
UPF1_Q92900_675_QLILVGDHCQLGPVVMCK (UniProt Q92900),-0.0215,-0.178
UGP2_Q16851_276_CEFVMEVTNK (UniProt Q16851),-0.0908,-0.0851
UBTD2_Q8WUN7_122_YQLPVYCLAPPINMIEEK (UniProt Q8WUN7),0.0555,-0.198
USP40_Q9NVE5_798_ELADNSCLRPIDR (UniProt Q9NVE5),-0.146,-0.0986
USP8_P40818_939_STVQCLTCHK (UniProt P40818),-0.0503,0.133
USP24_Q9UPU5_995_QLCSPVDNIQIFTNDSLLTVNK (UniProt Q9UPU5),0.165,0.107
UNC13D_Q70J99_992_DLHPLFDETFEFLVPAEPCR (UniProt Q70J99),-0.313,-0.325
UCHL5_Q9Y5K5_88_QVINNACATQAIVSVLLNCTHQDVHLGETLSEFK (UniProt Q9Y5K5),0.143,-0.205
UROS_P10746_143_ESSALPLLFPCGNLKR (UniProt P10746),-0.128,-0.405
UPF2_Q9HAU5_632+641_LVATLHPCMSDVAEDLCSMLR (UniProt Q9HAU5),0.128,0.333
UBTD2_Q8WUN7_152_SDIETLDIPEPPPNSGYECQLR (UniProt Q8WUN7),0.323,0.185
USP15_Q9Y4E8_570_TEDTEHVIIPVCLR (UniProt Q9Y4E8),0.0687,0.0155
USP11_P51784_468+471_STLVCPDCGNVSVTFDPFCYLSVPLPISHKR (UniProt P51784),-0.107,-0.0253
USP19_O94966_1017_LEDKGDTPLELGDDCSLALVWR (UniProt O94966),-0.0163,-0.146
UPF1_Q92900_683_QLILVGDHCQLGPVVMCK (UniProt Q92900),0.172,-0.219
USP4_Q13107_500_DRVMEVFLVPADPHCRPTQYR (UniProt Q13107),0.0259,-0.0407
